Results are given in words; binding and its absence hold for the method and conditions named. Binding seen in cells or lysates may run through a third protein. These calls come from enrichment with a bait or labelling near it, and not all partners need be listed. One block for each molecule: values may come before it.
How the values were obtained:
[1] = molecular target: T1, Ecm11-TurboID (S. cerevisiae) (UniProt Q04110); test: proximity labelling; eleven TurboID fusion strains (ndt80, homozygous) and a no-TurboID control, ~24 h sporulation, two replicates; TCA extract, streptavidin-sepharose pull-down, trypsin, UPLC-MS/MS; targets = in both replicates and in neither control
T1 sequence: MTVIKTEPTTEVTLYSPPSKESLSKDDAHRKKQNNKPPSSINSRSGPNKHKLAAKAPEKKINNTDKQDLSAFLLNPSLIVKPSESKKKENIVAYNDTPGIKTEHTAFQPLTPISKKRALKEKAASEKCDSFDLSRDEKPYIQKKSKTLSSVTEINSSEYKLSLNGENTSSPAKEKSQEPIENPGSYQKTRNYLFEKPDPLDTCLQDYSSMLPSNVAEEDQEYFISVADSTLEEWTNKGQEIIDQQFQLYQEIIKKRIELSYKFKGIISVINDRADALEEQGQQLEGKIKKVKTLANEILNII

Chains of the proteins cited; added tags and fusions are not shown. Lines headed by an entry give the natural chain unless they say otherwise; changes in a name come on top.
UniProt Q12306: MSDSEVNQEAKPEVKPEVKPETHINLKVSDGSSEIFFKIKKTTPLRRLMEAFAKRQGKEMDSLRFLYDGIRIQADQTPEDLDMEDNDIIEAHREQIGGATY
UniProt P51979: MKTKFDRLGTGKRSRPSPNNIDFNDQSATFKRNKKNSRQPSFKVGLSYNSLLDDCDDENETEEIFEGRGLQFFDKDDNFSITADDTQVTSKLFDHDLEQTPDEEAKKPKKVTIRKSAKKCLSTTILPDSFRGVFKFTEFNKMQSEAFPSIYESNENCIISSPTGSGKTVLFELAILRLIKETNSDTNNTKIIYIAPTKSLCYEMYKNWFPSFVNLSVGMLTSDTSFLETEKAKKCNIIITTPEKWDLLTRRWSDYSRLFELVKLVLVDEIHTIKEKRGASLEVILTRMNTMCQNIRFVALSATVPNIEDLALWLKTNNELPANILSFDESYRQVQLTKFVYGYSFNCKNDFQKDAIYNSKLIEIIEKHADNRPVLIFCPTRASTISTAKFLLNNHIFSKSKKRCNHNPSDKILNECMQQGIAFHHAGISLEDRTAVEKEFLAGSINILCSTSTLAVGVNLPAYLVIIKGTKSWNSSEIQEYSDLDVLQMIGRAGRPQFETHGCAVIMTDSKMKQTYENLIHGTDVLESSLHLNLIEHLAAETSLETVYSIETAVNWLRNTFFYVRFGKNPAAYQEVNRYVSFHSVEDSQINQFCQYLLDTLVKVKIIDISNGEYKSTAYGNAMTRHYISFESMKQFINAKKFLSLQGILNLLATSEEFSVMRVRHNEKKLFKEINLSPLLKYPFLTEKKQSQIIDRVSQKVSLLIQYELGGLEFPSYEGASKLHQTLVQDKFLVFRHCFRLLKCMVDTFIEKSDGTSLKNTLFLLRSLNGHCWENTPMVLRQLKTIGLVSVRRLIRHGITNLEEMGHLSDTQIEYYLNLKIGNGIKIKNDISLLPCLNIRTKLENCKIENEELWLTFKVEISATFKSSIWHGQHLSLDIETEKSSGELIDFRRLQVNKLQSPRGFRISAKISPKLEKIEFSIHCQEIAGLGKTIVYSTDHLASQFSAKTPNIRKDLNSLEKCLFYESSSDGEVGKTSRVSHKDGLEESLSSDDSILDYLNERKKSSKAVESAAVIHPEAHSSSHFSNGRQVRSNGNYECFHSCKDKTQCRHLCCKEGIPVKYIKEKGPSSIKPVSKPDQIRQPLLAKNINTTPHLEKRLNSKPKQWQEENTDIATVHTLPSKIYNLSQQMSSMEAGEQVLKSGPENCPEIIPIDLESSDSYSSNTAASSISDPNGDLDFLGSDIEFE

[2] = molecular target: T2, Msh4-TurboID (S. cerevisiae) (UniProt P40965); test: as above
T2 sequence: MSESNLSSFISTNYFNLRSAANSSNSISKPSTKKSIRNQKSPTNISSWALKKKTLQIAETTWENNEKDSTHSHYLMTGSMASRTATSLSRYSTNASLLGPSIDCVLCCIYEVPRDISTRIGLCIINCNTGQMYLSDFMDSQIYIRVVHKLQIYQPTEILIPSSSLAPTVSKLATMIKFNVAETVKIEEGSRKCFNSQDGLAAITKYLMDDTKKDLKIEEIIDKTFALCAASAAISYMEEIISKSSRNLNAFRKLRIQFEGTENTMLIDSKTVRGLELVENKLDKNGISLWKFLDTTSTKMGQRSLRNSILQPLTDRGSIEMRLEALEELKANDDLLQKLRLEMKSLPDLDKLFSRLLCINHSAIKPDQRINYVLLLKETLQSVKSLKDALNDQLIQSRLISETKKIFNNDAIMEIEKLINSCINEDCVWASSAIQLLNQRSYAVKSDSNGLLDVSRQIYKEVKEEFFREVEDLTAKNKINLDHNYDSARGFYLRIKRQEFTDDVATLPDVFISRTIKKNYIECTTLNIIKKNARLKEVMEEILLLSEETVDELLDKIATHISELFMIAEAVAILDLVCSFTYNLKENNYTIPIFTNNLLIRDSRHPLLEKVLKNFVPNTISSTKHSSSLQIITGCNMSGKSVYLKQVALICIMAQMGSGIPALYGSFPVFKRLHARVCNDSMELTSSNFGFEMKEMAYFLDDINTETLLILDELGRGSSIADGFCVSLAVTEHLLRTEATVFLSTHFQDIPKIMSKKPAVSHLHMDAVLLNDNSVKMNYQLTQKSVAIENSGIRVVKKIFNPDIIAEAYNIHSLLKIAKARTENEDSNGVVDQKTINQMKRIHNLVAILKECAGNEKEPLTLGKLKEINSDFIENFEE

[3] = molecular target: T3, Msh5-TurboID (S. cerevisiae) (UniProt Q12175); test: as above
T3 sequence: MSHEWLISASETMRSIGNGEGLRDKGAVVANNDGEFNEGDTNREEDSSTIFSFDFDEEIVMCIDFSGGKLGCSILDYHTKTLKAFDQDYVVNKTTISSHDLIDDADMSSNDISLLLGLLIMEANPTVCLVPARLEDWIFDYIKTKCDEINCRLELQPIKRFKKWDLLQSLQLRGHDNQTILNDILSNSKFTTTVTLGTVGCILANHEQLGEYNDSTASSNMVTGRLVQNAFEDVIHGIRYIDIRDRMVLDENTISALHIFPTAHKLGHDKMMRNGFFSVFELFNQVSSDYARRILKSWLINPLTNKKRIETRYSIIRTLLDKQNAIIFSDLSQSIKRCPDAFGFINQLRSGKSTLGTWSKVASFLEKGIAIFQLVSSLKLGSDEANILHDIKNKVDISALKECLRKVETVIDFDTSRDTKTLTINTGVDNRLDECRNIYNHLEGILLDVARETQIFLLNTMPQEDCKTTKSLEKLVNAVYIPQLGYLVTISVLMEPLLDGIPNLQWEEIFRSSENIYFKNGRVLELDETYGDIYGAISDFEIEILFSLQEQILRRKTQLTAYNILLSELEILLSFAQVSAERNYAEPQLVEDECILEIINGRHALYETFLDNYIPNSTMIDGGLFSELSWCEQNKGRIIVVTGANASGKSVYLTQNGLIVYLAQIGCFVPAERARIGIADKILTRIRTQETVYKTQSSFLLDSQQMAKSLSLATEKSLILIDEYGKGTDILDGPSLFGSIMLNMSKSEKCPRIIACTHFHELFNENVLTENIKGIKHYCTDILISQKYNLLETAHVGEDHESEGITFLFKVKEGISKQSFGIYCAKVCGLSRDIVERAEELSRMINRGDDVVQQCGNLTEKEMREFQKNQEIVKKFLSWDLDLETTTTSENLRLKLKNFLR

[4] = molecular target: T4, Ecm11-TurboID (S. cerevisiae), Q04110; test: as above; conditions: remark: other sources report otherwise
T4 chain: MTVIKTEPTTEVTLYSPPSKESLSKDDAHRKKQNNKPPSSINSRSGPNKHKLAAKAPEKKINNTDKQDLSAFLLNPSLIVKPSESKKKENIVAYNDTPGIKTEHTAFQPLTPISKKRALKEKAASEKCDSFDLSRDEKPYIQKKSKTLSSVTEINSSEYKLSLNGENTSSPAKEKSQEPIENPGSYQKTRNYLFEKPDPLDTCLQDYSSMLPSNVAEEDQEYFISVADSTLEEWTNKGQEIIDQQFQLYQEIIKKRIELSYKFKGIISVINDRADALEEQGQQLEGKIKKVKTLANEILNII

[5] = molecular target: T5, Zip2-TurboID (S. cerevisiae) (UniProt P53061); test: proximity labelling; TurboID fusion allele (homozygous, or heterozygous where said) in ndt80 diploid cells, 24 h in sporulation medium, endogenous biotin; TCA extract, 8% or 12% SDS-PAGE, streptavidin:HRP blot; also done in mutant backgrounds in which the labelling was kept
T5 sequence: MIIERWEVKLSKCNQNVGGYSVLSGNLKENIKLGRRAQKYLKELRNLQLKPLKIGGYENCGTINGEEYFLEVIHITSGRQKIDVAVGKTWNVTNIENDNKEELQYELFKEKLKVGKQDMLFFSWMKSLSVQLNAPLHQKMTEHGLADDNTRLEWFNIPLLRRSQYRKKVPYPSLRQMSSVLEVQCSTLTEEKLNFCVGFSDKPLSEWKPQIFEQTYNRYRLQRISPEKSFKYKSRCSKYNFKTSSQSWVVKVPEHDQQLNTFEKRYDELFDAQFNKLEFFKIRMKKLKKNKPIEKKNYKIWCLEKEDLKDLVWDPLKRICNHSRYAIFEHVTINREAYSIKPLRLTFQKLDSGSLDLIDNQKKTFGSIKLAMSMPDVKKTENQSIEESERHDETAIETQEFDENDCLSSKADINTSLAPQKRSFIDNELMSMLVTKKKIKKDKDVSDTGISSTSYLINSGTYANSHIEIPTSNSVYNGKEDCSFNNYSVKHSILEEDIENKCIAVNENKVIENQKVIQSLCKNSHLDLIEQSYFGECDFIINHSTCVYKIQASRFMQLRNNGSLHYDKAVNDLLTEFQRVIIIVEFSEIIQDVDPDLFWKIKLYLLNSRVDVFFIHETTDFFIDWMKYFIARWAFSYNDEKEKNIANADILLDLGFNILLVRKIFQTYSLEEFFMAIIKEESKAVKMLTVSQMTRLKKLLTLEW

[6] = molecular target: T2, Msh4-TurboID (S. cerevisiae); test: as above

Molecule: SUMO protein (encoded by the SMT3 gene) (from UniProt Q12306)
- binding [1]: binds

Molecule: Mer3 (from UniProt P51979 1-1187)
- binding [2]: binds
- binding [3]: binds

The next lines start with the values.

- binding [4]: binds
B1: Zip1, P31111 1-875 (protein)
chain: MSNFFRDSSMGFKPRPNIFAKLRVRDVDSDSSANTVVENSSNCLDVGSSIEGDDTFKKPHKTSTEQELITSMSLSQRNHGYSDDMEIGSPKKTTSTDQYNRILKNDVAAIENDTDEDFEITEVREVSEGVAKETKESHGDPNDSETTLKDSKMHEYTMTNGKAPLHTSINNSSTSSNDVLLEAFTNTQRICSNLKQELQKQQQDNAKLKVRLQSYASNSDKINEKVGKYKSCLETLQERIATLTSHKNNQETKLKDLRQNHQLYQRRISGFKTSIENLNKTINDLGKNKKEADAELMKKGKEIEYLKRELDDCSGQLSEEKIKNSSLIQEMGKNREEMIKSIENFFSEDKAHHLLQFNKFEERVHDLFEKKLQKHFDVAKDTLNVGLRNTTVELSSNTETMLKQQYEDIKENLEQKMSSSKDEMAKTINELSVTQKGLIMGVQEELLTSSGNIQTALVSEMNNTRQELLDDASQTAKNYASLENLVKAYKAEIVQSNEYEERIKHLESERSTLSSQKNQIISSLGTKEAQYEDLVKKLEAKNIEISQISGKEQSLTEKNENLSNELKKVQDQLEKLNNLNITTKSNYENKISSQNEIVKALVSENDTLKQRIQQLVEIKENEQKDHTTKLEAFQKNNEQLQKLNVEVVQLKAHELELEEQNRHLKNCLEKKETGVEESLSDVKTLKQQVIVLKSEKQDITAEKLELQDNLESLEEVTKNLQQKVQSQKRELEQKIKELEEIKNHKRNEPSKKGTQNFTKPSDSPKKNATTSNLFPNNSAAIHSPMKKCPKVDHISKSRINSSKETSKFNDEFDLSSSSNDDLELTNPSPIQIKPVRGKIKKGSNCMKPPISSRKKLLLVEDEDQSLKISKKRRRK

- binding [5]: binds
- binding [6]: binds
B2: Ecm11[K5R, K101R] (protein, UniProt Q04110 1-302)
chain: MTVIRTEPTTEVTLYSPPSKESLSKDDAHRKKQNNKPPSSINSRSGPNKHKLAAKAPEKKINNTDKQDLSAFLLNPSLIVKPSESKKKENIVAYNDTPGIRTEHTAFQPLTPISKKRALKEKAASEKCDSFDLSRDEKPYIQKKSKTLSSVTEINSSEYKLSLNGENTSSPAKEKSQEPIENPGSYQKTRNYLFEKPDPLDTCLQDYSSMLPSNVAEEDQEYFISVADSTLEEWTNKGQEIIDQQFQLYQEIIKKRIELSYKFKGIISVINDRADALEEQGQQLEGKIKKVKTLANEILNII

Source: PMC11508090
